The subject of this assay is A549. Kind of assay: Cytotoxicity against human A549 cells. It counts as functional, cell-based.

One may read the IC50 as the concentration needed to halve the response being measured. Low values mean greater potency, high ones weaker potency.

`CC(=O)O[C@H]1C(=O)[C@@]2(C)[C@H]([C@H](OC(=O)c3ccccc3)[C@]3(O)C[C@H](OC(=O)[C@H](O)[C@@H](NC(=O)c4ccccc4)c4ccccc4)C(C)=C1C3(C)C)[C@]1(OC(C)=O)CO[C@@H]1C[C@@H]2O` [PACLITAXEL] came in with a concentration for half-maximal inhibition (IC50) of 6.3 nM.

Values taken from ChEMBL document CHEMBL3734706, “Syntheses and biological evaluation of C-3'-N-acyl modified taxane analogues from 1-deoxybaccatin-VI” (Eur J Med Chem, 2015).
